# Laboratory results published in the supplement of paper PMC8728848.
# Some of the results follow.
# Experiments:
# Assay in all cases: glycan array binding signal (z-score within array); higher = stronger binding
# Conditions in all cases: glycan notation: IUPAC condensed, linker removed
# [1] = molecular target: Neu5Ac(a2-6)Gal(b1-4)GlcNAc(b1-2)Man(a1-3)[GlcNAc(b1-2)Man(a1-6)]Man(b1-4)GlcNAc(b1-4)GlcNAc
# How it was run: (§1)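 From the Consortium for Functional Glycomics database, 3228 arrays were curated, keeping only those whose protein sequence was available. Binding is given as a within-array Z-score averaged across arrays sharing a protein sequence and across linkers. Negative Z-scores can be read as non-binding.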
# [2] = molecular target: Neu5Ac(a2-6)Gal(b1-4)GlcNAc(b1-2)Man(a1-3)[GlcNAc(b1-2)Man(b1-4)GlcNAc(b1-2)Man(a1-6)]Man(b1-4)GlcNAc(b1-4)GlcNAc
# How it was run: as §1
# [3] = molecular target: Neu5Ac(a2-6)Gal(b1-4)GlcNAc(b1-2)Man(a1-3)[Man(a1-6)]Man(b1-4)GlcNAc(b1-4)GlcNAc
# How it was run: as §1
# [4] = molecular target: Neu5Ac(a2-6)Gal(b1-4)GlcNAc(b1-2)Man(a1-3)[Neu5Ac(a2-6)Gal(b1-4)GlcNAc(b1-2)Man(a1-6)]Man(b1-4)GlcNAc(b1-4)GlcNAc
# How it was run: as §1
# [5] = molecular target: Neu5Ac(a2-6)Gal(b1-4)GlcNAc(b1-2)Man(a1-6)Man(b1-4)GlcNAc(b1-4)GlcNAc
# How it was run: as §1
# [6] = molecular target: Neu5Ac(a2-6)Gal(b1-4)GlcNAc(b1-2)Man(a1-6)[Gal(b1-4)GlcNAc(b1-2)Man(a1-3)]Man(b1-4)GlcNAc(b1-4)GlcNAc
# How it was run: as §1
# [7] = molecular target: Neu5Ac(a2-6)Gal(b1-4)GlcNAc(b1-2)Man(a1-6)[GlcNAc(b1-2)Man(a1-3)]Man(b1-4)GlcNAc(b1-4)GlcNAc
# How it was run: as §1
# [8] = molecular target: Neu5Ac(a2-6)Gal(b1-4)GlcNAc(b1-2)Man(a1-6)[Man(a1-3)]Man(b1-4)GlcNAc(b1-4)GlcNAc
# How it was run: as §1
# [9] = molecular target: Neu5Ac(a2-6)Gal(b1-4)GlcNAc(b1-3)Gal(b1-3)GlcNAc
# How it was run: as §1
# [10] = molecular target: Neu5Ac(a2-6)Gal(b1-4)GlcNAc(b1-3)Gal(b1-4)GlcNAc
# How it was run: as §1
# [11] = molecular target: Neu5Ac(a2-6)Gal(b1-4)GlcNAc(b1-3)Gal(b1-4)GlcNAc(b1-3)Gal(b1-4)GlcNAc
# How it was run: as §1
# [12] = molecular target: Neu5Ac(a2-6)Gal(b1-4)GlcNAc(b1-3)Gal(b1-4)[Fuc(a1-3)]GlcNAc(b1-3)Gal(b1-4)[Fuc(a1-3)]GlcNAc
# How it was run: as §1
# [13] = molecular target: Neu5Ac(a2-6)Gal(b1-4)GlcNAc(b1-3)GalNAc
# How it was run: as §1
# [14] = molecular target: Neu5Ac(a2-6)Gal(b1-4)GlcNAc6S
# How it was run: as §1
# [15] = molecular target: Neu5Ac(a2-6)GalNAc
# How it was run: as §1
# [16] = molecular target: Neu5Ac(a2-6)GalNAc(b1-4)GlcNAc
# How it was run: as §1
# [17] = molecular target: Neu5Ac(a2-6)GlcNAc(b1-4)GlcNAc
# How it was run: as §1
# [18] = molecular target: Neu5Ac(a2-6)GlcNAc(b1-4)GlcNAc(b1-4)GlcNAc
# How it was run: as §1
# [19] = molecular target: Neu5Ac(a2-8)Neu5Ac
# How it was run: as §1
# [20] = molecular target: Neu5Ac(a2-8)Neu5Ac(a2-3)Gal(b1-3)GalNAc(b1-4)[Neu5Ac(a2-8)Neu5Ac(a2-3)]Gal(b1-4)Glc
# How it was run: as §1
# [21] = molecular target: Neu5Ac(a2-8)Neu5Ac(a2-3)Gal(b1-4)Glc
# How it was run: as §1
# [22] = molecular target: Neu5Ac(a2-8)Neu5Ac(a2-3)[Gal(b1-3)GalNAc(b1-4)]Gal(b1-4)Glc
# How it was run: as §1
# [23] = molecular target: Neu5Ac(a2-8)Neu5Ac(a2-3)[GalNAc(b1-4)]Gal(b1-4)Glc
# How it was run: as §1
# [24] = molecular target: Neu5Ac(a2-8)Neu5Ac(a2-8)Neu5Ac
# How it was run: as §1
# [25] = molecular target: Neu5Ac(a2-8)Neu5Ac(a2-8)Neu5Ac(a2-3)Gal(b1-4)Glc
# How it was run: as §1
# [26] = molecular target: Neu5Ac(a2-8)Neu5Ac(a2-8)Neu5Ac(a2-3)[GalNAc(b1-4)]Gal(b1-4)Glc
# How it was run: as §1
# [27] = molecular target: Neu5Ac(a2-8)Neu5Ac(a2-8)Neu5Ac(a2-8)Neu5Ac(a2-3)[GalNAc(b1-4)]Gal(b1-4)Glc
# How it was run: as §1
# [28] = molecular target: Neu5Ac(b2-6)Gal(b1-4)GlcNAc
# How it was run: as §1
# [29] = molecular target: Neu5Ac(b2-6)GalNAc
# How it was run: as §1
# [30] = molecular target: Neu5Ac9Ac(a2-3)Gal(b1-3)GlcNAc
# How it was run: as §1
# [31] = molecular target: Neu5Ac9Ac(a2-3)Gal(b1-4)GlcNAc
# How it was run: as §1
# [32] = molecular target: Neu5Ac9Ac(a2-6)Gal(b1-4)GlcNAc
# How it was run: as §1
# [33] = molecular target: Neu5Gc(a2-3)Gal(b1-3)GlcNAc
# How it was run: as §1
# [34] = molecular target: Neu5Gc(a2-3)Gal(b1-3)[Fuc(a1-4)]GlcNAc
# How it was run: as §1
# [35] = molecular target: Neu5Gc(a2-3)Gal(b1-4)Glc
# How it was run: as §1
# [36] = molecular target: Neu5Gc(a2-3)Gal(b1-4)GlcNAc
# How it was run: as §1
# [37] = molecular target: Neu5Gc(a2-3)Gal(b1-4)[Fuc(a1-3)]GlcNAc
# How it was run: as §1
# [38] = molecular target: Neu5Gc(a2-6)Gal(b1-4)GlcNAc
# How it was run: as §1
# [39] = molecular target: Neu5Gc(a2-6)GalNAc
# How it was run: as §1
# [40] = molecular target: Neu5Gc(b2-6)Gal(b1-4)GlcNAc
# How it was run: as §1
binder,measurement,setting,value
"Layilin (Mus musculus), Q8C351 (protein) MQPGAALQAMLLAVLLAKPRDSKGRLLSASDLDPRGGQLVCRGGTRRPCYKVIYFHDAFQRLNFEEAKETCMEDGGQLVSIETEDEQRLIEKFIENLLASDGDFWIGLKRLEEKQSNNTACQDLYAWTDGSTSQFRNWYVDEPSCGSEVCVVMYHQPSAPPGIGGSYMFQWNDDRCNMKNNFICKYHDDKPSTTPSIWPGGEATEPATPLLPEETQKEDTKETFKERREAALNLAYILIPSIPLFLLLVVTSAVCWVWICRRKREQTDPSTKEQHTIWPTPRQENSPNLDVYNVIRKQSEADLAEPRPDLKNISFRVCSGEAMPDDMSCDYENIAVNPSESGFVTLASMESGFVTNDIYEFSPDRMGRSKESGWVENEIYY",glycan array binding signal (z-score),[1],-1.14
same,glycan array binding signal (z-score),[2],1.47
same,glycan array binding signal (z-score),[3],0.593
same,glycan array binding signal (z-score),[4],-0.339
same,glycan array binding signal (z-score),[5],-0.392
same,glycan array binding signal (z-score),[6],-0.426
same,glycan array binding signal (z-score),[7],-0.54
same,glycan array binding signal (z-score),[8],0.321
same,glycan array binding signal (z-score),[9],-0.374
same,glycan array binding signal (z-score),[10],0.558
same,glycan array binding signal (z-score),[11],-0.209
same,glycan array binding signal (z-score),[12],0.134
same,glycan array binding signal (z-score),[13],0.461
same,glycan array binding signal (z-score),[14],-0.397
same,glycan array binding signal (z-score),[15],-0.757
same,glycan array binding signal (z-score),[16],0.121
same,glycan array binding signal (z-score),[17],1.1
same,glycan array binding signal (z-score),[18],0.077
same,glycan array binding signal (z-score),[19],0.295
same,glycan array binding signal (z-score),[20],0.192
same,glycan array binding signal (z-score),[21],0.617
same,glycan array binding signal (z-score),[22],-0.274
same,glycan array binding signal (z-score),[23],-0.705
same,glycan array binding signal (z-score),[24],-0.704
same,glycan array binding signal (z-score),[25],-0.406
same,glycan array binding signal (z-score),[26],0.029
same,glycan array binding signal (z-score),[27],0.407
same,glycan array binding signal (z-score),[28],-1.32
same,glycan array binding signal (z-score),[29],-0.677
same,glycan array binding signal (z-score),[30],0.75
same,glycan array binding signal (z-score),[31],-0.452
same,glycan array binding signal (z-score),[32],-0.584
same,glycan array binding signal (z-score),[33],0.013
same,glycan array binding signal (z-score),[34],-0.015
same,glycan array binding signal (z-score),[35],-1.25
same,glycan array binding signal (z-score),[36],0.387
same,glycan array binding signal (z-score),[37],2.74
same,glycan array binding signal (z-score),[38],-0.511
same,glycan array binding signal (z-score),[39],0.399
same,glycan array binding signal (z-score),[40],-0.119

# Given with bars between the fields: part of the list above.
binder | measurement | setting | value
Layilin (Mus musculus), Q8C351 (protein) MQPGAALQAMLLAVLLAKPRDSKGRLLSASDLDPRGGQLVCRGGTRRPCYKVIYFHDAFQRLNFEEAKETCMEDGGQLVSIETEDEQRLIEKFIENLLASDGDFWIGLKRLEEKQSNNTACQDLYAWTDGSTSQFRNWYVDEPSCGSEVCVVMYHQPSAPPGIGGSYMFQWNDDRCNMKNNFICKYHDDKPSTTPSIWPGGEATEPATPLLPEETQKEDTKETFKERREAALNLAYILIPSIPLFLLLVVTSAVCWVWICRRKREQTDPSTKEQHTIWPTPRQENSPNLDVYNVIRKQSEADLAEPRPDLKNISFRVCSGEAMPDDMSCDYENIAVNPSESGFVTLASMESGFVTNDIYEFSPDRMGRSKESGWVENEIYY | glycan array binding signal (z-score) | [13] | 0.461
same | glycan array binding signal (z-score) | [14] | -0.397
same | glycan array binding signal (z-score) | [15] | -0.757
same | glycan array binding signal (z-score) | [16] | 0.121
same | glycan array binding signal (z-score) | [17] | 1.1
same | glycan array binding signal (z-score) | [18] | 0.077
same | glycan array binding signal (z-score) | [19] | 0.295
same | glycan array binding signal (z-score) | [20] | 0.192
same | glycan array binding signal (z-score) | [21] | 0.617
